According to publication PMC10930919:
No constants are given. Whether binding was seen depends on the method and setting. In cells and extracts the contact can be indirect. Some binding calls cover weakened binding; strength is not graded here. Tags and fused reporters may be left off the sequences shown.

The chains behind the UniProt entries cited, without tags or fusion partners.
UniProt Q00987: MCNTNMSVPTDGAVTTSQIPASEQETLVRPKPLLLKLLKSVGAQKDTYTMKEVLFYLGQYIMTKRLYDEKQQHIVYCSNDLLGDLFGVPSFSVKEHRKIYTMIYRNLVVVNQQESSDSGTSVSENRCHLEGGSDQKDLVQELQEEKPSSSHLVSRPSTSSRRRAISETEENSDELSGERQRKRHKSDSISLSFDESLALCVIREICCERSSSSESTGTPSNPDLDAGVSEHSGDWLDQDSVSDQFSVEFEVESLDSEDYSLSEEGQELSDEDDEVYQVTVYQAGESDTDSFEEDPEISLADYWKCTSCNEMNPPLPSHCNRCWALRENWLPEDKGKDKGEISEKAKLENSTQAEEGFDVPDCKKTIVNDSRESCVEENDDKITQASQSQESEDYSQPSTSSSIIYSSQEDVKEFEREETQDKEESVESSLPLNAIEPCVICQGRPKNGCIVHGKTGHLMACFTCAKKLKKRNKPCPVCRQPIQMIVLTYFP

Molecular target: T1, HIS-tagged Jun dimerization protein 2 (JDP2), WT (human) (UniProt Q8WYK2)
T1 sequence: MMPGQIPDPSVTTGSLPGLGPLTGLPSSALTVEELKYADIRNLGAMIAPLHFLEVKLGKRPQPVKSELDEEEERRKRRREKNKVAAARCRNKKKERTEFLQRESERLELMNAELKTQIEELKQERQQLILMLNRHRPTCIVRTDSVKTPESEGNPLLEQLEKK
Experiment: pull-down; H1299 cells co-transfected with HIS-tagged JDP2 and MDM2, 48 h; whole cell lysates precipitated with Ni-beads to pull down HIS-tagged JDP2, blot with anti-MDM2

For MDM2 (from UniProt Q00987 1-491), the binding was “binds”.
